The source of these data is PMC8111302.

No constants are given. Whether binding was seen depends on the method and setting. In cells and extracts the contact can be indirect. Some entries that bind do so weakly or less than the wild type. Where a sequence is shown, tags or fusion partners need not be part of it.

The target of the test is T1, HA-CHIP (hsc70-interacting protein), Q9UNE7.
T1 chain: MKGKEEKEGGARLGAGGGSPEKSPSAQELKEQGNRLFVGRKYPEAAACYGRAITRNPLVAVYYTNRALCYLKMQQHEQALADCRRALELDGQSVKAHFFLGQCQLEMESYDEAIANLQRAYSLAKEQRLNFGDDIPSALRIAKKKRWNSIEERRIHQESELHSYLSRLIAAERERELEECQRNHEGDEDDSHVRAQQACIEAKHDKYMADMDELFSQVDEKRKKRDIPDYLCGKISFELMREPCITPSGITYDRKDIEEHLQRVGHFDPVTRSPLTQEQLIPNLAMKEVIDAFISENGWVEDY
Kind of test: co-IP; co-IP with an HA antibody; cells not given. The note with it: remark: other sources report otherwise.

B1: Bcl2-associated athanogene 2 (BAG2), O95816 1-211 (protein)
chain: MAQAKINAKANEGRFCRSSSMADRSSRLLESLDQLELRVEALREAATAVEQEKEILLEMIHSIQNSQDMRQISDGEREELNLTANRLMGRTLTVEVSVETIRNPQQQESLKHATRIIDEVVNKFLDDLGNAKSHLMSLYSACSSEVPHGPVDQKFQSIVIGCALEDQKKIKRRLETLLRNIENSDKAIKLLEHSKGAGSKTLQQNAESRFN
As for B1, the binding result is on record as “binds”.
